In all, about 580,000 compounds went through this assay and about 6,100 (1.1%) were called active. Inconclusive results (about 15%) are left out. The call rests on the fitted dose curve; in most records, active means well fitted inhibition curve with a large enough effect; inconclusive means small, poorly fitted or top-dose-only effect, or another doubt; inactive means no such curve, though single readings can be large or run the other way. The entries are a selection whose mix differs from that of the whole data set. The source gives no active or inactive call for entries shown without one. Some structures have more than one record in an assay (separate samples or runs), and their calls can disagree.
On the % scale 0 is the no-effect control and ±100 the full control effect; potency means the concentration at half of the fitted maximal effect.

Sequences of proteins named here, by UniProt entry; tags and fusion partners are left off. A change or cut given only in a name is not applied to a line headed by its entry.
UniProt P18054: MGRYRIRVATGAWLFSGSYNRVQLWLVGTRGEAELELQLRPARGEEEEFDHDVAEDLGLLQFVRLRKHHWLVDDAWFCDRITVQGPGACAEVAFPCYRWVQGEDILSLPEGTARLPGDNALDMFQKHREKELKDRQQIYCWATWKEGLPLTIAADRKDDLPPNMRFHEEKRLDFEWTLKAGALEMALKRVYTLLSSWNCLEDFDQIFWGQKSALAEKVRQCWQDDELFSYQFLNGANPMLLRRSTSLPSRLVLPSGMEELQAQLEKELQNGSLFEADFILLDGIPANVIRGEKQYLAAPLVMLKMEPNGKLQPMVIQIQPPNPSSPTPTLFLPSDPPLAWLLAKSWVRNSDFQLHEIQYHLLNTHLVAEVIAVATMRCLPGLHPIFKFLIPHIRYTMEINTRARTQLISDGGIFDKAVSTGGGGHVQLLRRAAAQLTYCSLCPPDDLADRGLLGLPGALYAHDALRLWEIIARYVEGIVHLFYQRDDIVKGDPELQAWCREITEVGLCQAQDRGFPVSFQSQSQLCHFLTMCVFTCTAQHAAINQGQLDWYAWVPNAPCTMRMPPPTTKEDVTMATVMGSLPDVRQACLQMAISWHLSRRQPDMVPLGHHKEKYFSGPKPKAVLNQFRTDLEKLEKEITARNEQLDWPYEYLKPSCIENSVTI

The target in the assay is Polyunsaturated fatty acid lipoxygenase ALOX12 (Homo sapiens) (UniProt P18054). Nature of the assay: Primary qHTS assay for inhibitors of human arachidonate 12S-lipoxygenase (ALOX12): Round 2. As to conditions: purified 12hLO, xylenol orange hydroperoxide absorbance; activity change, negative = inhibition: at 0.00344 µM (top of the series) unless noted. In outline: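 Purified human 12hLO (150 nM final) in 25 mM Hepes, 0.01% Triton X-100, pH 7.0 was preincubated 15 min at room temperature with compound. Then 40 uM arachidonic acid was added, 30 min. Hydroperoxide was read by Fe-XO absorbance ratio 573/405 nm.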
(In qHTS, concentration-response curves come from the screen itself.)
Turning to `Cc1ccc(-n2c(/C=C/c3ccco3)nc3ccccc3c2=O)cc1`, the Potency was active: 15.8 µM.
Turning to `Nc1ccc(Cl)cc1C(=O)c1ccccc1F`, the activity change, negative = inhibition amounted to 27.2%.
On the same count and under the same terms, the figure for `COc1cc(CC(C)N)c(OC)cc1Br` (stereo not drawn) is 5.45% [at 0.00599 µM].
The same measure, in the same setting: next, `Clc1ccccc1N1CCNCC1`: -59.2%.
On the same count and under the same terms, the figure for `N#CC(C#N)=Cc1ccc(O)c(O)c1` is -9.39%.
Take `COP(=O)(OC)OC=C(Cl)Cl`: the activity change, negative = inhibition came to 40.4%.
Still for that read-out and setting: the figure for `CN1CCC(O)(c2ccc(F)cc2)C(C(=O)c2ccc(F)cc2)C1` (stereo not drawn) is 6.29%; for `Oc1ccc2c3c1O[C@H]1[C@@H](O)C=C[C@H]4[C@@H](C2)NCC[C@@]341` it is 14.9% [at 0.00599 µM]; for `OCCOc1ccccc1` it is 16%.
With `O=c1n(Cl)c(=O)n(Cl)c(=O)n1Cl`, the activity change, negative = inhibition was -7.72%.
For `CC(CC(C#N)(c1ccccc1)c1ccccc1)N(C)C` (stereo not drawn), the activity change, negative = inhibition was -18.3% [at 0.00599 µM].
On the same count and under the same terms, the figure for `CCOP(=S)(OCC)O/N=C(\C#N)c1ccccc1` is 4.44%.
Same read-out and setting: next, `CC(C)NCC(O)c1ccc([N+](=O)[O-])cc1` (stereo not drawn): -30.1%; `CC(Cc1ccccc1)NCCn1cnc2c1c(=O)n(C)c(=O)n2C` (stereo not drawn): 23% [at 0.00599 µM].
For `CCN(CC)C(=O)N[C@@H]1C=C2c3cccc4[nH]cc(c34)C[C@@H]2N(C)C1`, the activity change, negative = inhibition is 1.76%.
On the same count and under the same terms, the figure for `CCC1(c2ccccc2)C(=O)N(COC)C(=O)N(COC)C1=O` is 21.9%.
Same read-out and setting: the figure for `ClCCCN1CCN(c2cccc(Cl)c2)CC1` is 23.6%.
Still for that read-out and setting: next, `CC(=O)[C@H]1CC[C@H]2[C@@H]3CC[C@H]4C[C@](C)(O)CC[C@]4(C)[C@H]3CC[C@]12C`: -26.6%; `CCOC(=O)C1(c2ccccc2)CCN(CCC(C#N)(c2ccccc2)c2ccccc2)CC1`: -25.3%.
`NC1=NC(=O)C(c2ccccc2)O1` (stereo not drawn): the activity change, negative = inhibition came to 25.2%.
`O=C1OC(c2ccc(O)c(S(=O)(=O)O)c2)(c2ccc(O)c(S(=O)(=O)O)c2)c2c(Br)c(Br)c(Br)c(Br)c21`: the activity change, negative = inhibition was found to be 45.6%.
Same read-out and setting: next, `CC(C)=C[C@@H]1[C@@H](C(=O)OCc2coc(Cc3ccccc3)c2)C1(C)C`: -31.5%; `CCCN(CCC)CCc1c[nH]c2ccccc12`: -13.9% [at 0.00599 µM]; `CC(NC(C)(C)C)C(=O)c1cccc(Cl)c1` (stereo not drawn): 45.3%.
In the case of `NCc1cccnc1`, the activity change, negative = inhibition was -33.6%.
Take `CN(C)[C@@H]1C(=O)C(C(N)=O)=C(O)[C@@]2(O)C(=O)C3=C(O)c4c(O)cccc4[C@@](C)(O)[C@H]3C[C@@H]12`: the activity change, negative = inhibition came out at 12%.
Regarding `CN1C(=O)/C(=C/c2ccc(Cl)s2)C(=O)NC1=S`, the Potency is active: 4.47 µM.
As to `Cn1c(CCCC(=O)O)nc2cc(N(CCCl)CCCl)ccc21`, the activity change, negative = inhibition was 24.1%.
As to `CC(C)COc1ccc(Cc2c(O)[nH]c(=S)[nH]c2=O)cc1`, the Potency is active: 8.91 µM.
On to `CCN(CC)CCc1c[nH]c2ccccc12`, for which the activity change, negative = inhibition is 19.4% [at 0.0105 µM].
On the same count and under the same terms, next, `CC(=O)OC1(c2ccccc2)CCN(CCc2ccccc2)CC1`: -11.9% [at 0.00599 µM]; `CN1CCN(C(=O)O[C@H]2c3nccnc3C(=O)N2c2ccc(Cl)cn2)CC1`: -11.3%.
Still for that read-out and setting: the figure for `Oc1ccc2[nH]cc(CCCCN3CC=C(c4ccccc4)CC3)c2c1` is 19.7%.
On to `O=Cc1c(C(=O)O)n(Cc2ccc(Cl)cc2)c2ccccc12`, for which the Potency is active: 11.2 µM.
Consider `C[C@H]1O[C@@H](O[C@H]2[C@@H](O)C[C@H](O[C@H]3[C@@H](O)C[C@H](O[C@H]4CC[C@@]5(C)[C@H](CC[C@@H]6[C@@H]5CC[C@]5(C)[C@@H](C7=CC(=O)OC7)CC[C@]65O)C4)O[C@@H]3C)O[C@@H]2C)C[C@H](O)[C@@H]1O`, for which the activity change, negative = inhibition was -12.9%.
Still for that read-out and setting: the figure for `CCOC(C(=O)OCCN(C)C)(c1ccccc1)c1ccccc1` is -16.7%; for `O=c1[nH]oc2c1CCNC2` it is 7.4%; for `O=C(O)c1nn(Cc2ccc(Cl)cc2Cl)c2ccccc12` it is 11%.
Turning to `C[C@@H]1C[C@@H]([C@H](O)CC2CC(=O)NC(=O)C2)C(=O)[C@@H](C)C1`, the activity change, negative = inhibition amounted to 26.9%.
Consider `C[n+]1ccc(-c2ccncc2)cc1`, for which the Potency was active: 12.6 µM.
Regarding `C[C@H](N)C(=O)c1ccccc1`, the activity change, negative = inhibition is -15.6% [at 0.0105 µM].
Turning to `CC[C@@H](CO)NC(=O)[C@@H]1C=C2c3cccc4[nH]cc(c34)C[C@H]2N(C)C1`, the activity change, negative = inhibition was -6.39%.
Same read-out and setting: the figure for `CCC1(CCC(C)C)C(=O)NC(=O)NC1=O` is 15.6% [at 0.00599 µM]; for `Cc1ncsc1CCCl` it is -28.1%.
For the molecule `Cc1ccc(CNCCc2c[nH]c3ccccc23)c(C)c1`, the Potency was active: 12.6 µM.
In the case of `O=C(CCCN1CCC2(CC1)C(=O)NCN2c1ccccc1)c1ccc(F)cc1`, the activity change, negative = inhibition stood at 22.5%.
With `O=[N+]([O-])O[C@H]1CO[C@H]2[C@@H]1OC[C@H]2O[N+](=O)[O-]`, the activity change, negative = inhibition worked out at 47.5%.
The same measure, in the same setting: next, `C=C1CC[C@@]2(O)[C@H]3Cc4ccc(O)c5c4[C@@]2(CCN3CC2CC2)[C@H]1O5`: 10.2%; `C[C@]12Cc3nonc3C[C@@H]1CC[C@@H]1[C@@H]2CC[C@@]2(C)[C@H]1CC[C@]2(C)O`: 4.44%; `CCC(=O)C(CC(C)N(C)C)(c1ccccc1)c1ccccc1` (stereo not drawn): 16% [at 0.00599 µM].
On to `CN(C)c1ccc2c(c1)N=C(c1ccco1)OP2(=S)N1CCOCC1` (stereo not drawn), for which the Potency is active: 20 µM.
Consider `CN1CCC(N(Cc2ccccc2)c2ccccc2)CC1`, for which the activity change, negative = inhibition came to 20.6%.
The same measure, in the same setting: next, `CCCCCCCCCC(=O)O[C@H]1CC[C@H]2[C@@H]3CCC4=CC(=O)CC[C@@H]4[C@H]3CC[C@]12C`: -4.52%.

These data come from PubChem BioAssay AID1671190 (National Center for Advancing Translational Sciences (NCATS), 2021).
